This note sets out measurements from doi:10.1101/2023.01.19.524697.

By UniProt entry, the sequences of proteins in these tests, tags left out.
UniProt Q39057: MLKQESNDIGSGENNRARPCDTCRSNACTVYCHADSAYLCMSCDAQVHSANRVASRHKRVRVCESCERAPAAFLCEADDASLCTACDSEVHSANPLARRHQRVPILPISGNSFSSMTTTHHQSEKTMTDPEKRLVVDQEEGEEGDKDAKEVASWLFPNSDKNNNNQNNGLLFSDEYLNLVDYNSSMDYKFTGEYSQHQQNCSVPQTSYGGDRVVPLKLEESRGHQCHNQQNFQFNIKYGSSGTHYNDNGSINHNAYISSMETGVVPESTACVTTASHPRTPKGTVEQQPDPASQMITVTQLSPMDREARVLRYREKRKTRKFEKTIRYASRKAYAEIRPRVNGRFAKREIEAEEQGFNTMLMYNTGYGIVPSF

The target of assay [1] is T1, PSEUDO RESPONSE REGULATOR 5 (PRR5), split-YFP fusion for BiFC (Arabidopsis thaliana) (UniProt Q6LA42).
T1 sequence: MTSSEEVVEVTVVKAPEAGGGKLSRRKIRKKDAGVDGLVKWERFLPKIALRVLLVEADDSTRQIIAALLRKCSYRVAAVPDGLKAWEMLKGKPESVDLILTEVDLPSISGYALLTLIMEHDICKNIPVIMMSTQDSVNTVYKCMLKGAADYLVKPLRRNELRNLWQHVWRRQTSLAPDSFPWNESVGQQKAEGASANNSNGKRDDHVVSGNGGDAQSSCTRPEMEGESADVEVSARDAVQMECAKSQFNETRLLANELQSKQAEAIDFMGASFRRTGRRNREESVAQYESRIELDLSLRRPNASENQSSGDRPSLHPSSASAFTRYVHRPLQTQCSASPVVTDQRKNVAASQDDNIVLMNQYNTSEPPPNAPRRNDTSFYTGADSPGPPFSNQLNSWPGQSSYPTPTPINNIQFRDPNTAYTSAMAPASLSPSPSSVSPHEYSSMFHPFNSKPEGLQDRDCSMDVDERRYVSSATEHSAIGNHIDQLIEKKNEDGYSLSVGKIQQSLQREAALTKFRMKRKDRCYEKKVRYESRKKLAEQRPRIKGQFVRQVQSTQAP
As to the kind of experiment: split reporter.

Assay [2] has as its target T2, LONG HYPOCOTYL 5 (HY5), split-YFP fusion for BiFC (Arabidopsis thaliana) (UniProt O24646).
T2 sequence: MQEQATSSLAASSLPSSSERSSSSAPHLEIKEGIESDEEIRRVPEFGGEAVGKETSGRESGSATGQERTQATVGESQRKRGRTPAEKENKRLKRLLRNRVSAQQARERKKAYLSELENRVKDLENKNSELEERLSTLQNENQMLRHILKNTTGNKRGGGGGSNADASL
As to the kind of experiment: split reporter.

Assay [3] addresses T3, YFN:HY5/YFC:PRR5 (HY5 and PRR5 with reconstituted YFP) (Arabidopsis thaliana) (UniProt O24646+Q6LA42).
T3 sequence 1: T2 sequence
T3 sequence 2: T1 sequence
As to the kind of experiment: FRET or BRET. (In BRET a luciferase serves as donor, and the signal depends on an acceptor being close.)

No constants are given. Whether binding was seen depends on the method and setting. In cells and extracts the contact can be indirect. Some entries that bind do so weakly or less than the wild type. Where a sequence is shown, tags or fusion partners need not be part of it.

Turning to “CONSTANS (CO), split-YFP fusion for BiFC (from UniProt Q39057 1-373)”, the binding entry in assay [1] and in assay [2] was “binds” in each case.

In the case of CO:CFP (from UniProt Q39057 1-373), in assay [3], the binding result is given as “binds”.
